In PubChem BioAssay AID1347075 (National Center for Advancing Translational Sciences (NCATS), 2019):
Out of some 400,000 compounds screened, about 5,500 (1.4%) were called active. The shares of active, inactive and inconclusive entries below differ from those in the screen. Calls come from the whole dose curve; as a rule, active = well fitted cell-killing curve with a large enough effect; inconclusive = small, poorly fitted or top-dose-only effect, or effect the other way; inactive = flat fitted curve, though single readings scatter. A potency beside an inconclusive call is a rough fit, not a confirmed value.
% is set by controls: 0 for no effect and ±100 for the full control effect; potency is the fitted concentration of half-maximal effect.

Test: qHTS assay for MDR1-selective chemotherapeutics: Primary screen using the parental adenocarcinoma cell KB-3-1; note: nearly all actives have a fitted effect of over 60% in size
Details: KB-3-1 viability, CellTiter-Glo ATP luminescence, 72 h; activity change, negative = cytotoxic: at 46.1 µM (top of the series)
In short: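 Luminescent ATP read-out (CellTiter-Glo) measures survival of drug-naive KB-3-1 cells after 72 h compound exposure at 37 °C. Titration series was screened from lowest to highest concentration, with DMSO vehicle plates as background controls.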
With `COc1ccc(-c2cc3cc(OC)c(OC)cc3cn2)cc1` the Potency was inconclusive: 29.1 µM [cytotoxic, single point].
For `COc1ccc(-c2nnc(SCC(=O)Nc3c(C)cccc3C)nc2-c2ccc(OC)cc2)cc1`, the Potency was inconclusive: 29.1 µM [cytotoxic, single point].
In the case of `CC1CCCCC1NC(=O)NC(=O)CCl` (stereo not given), the Potency is reported as inconclusive: 18.4 µM [cytotoxic, single point].
In the case of `C=CC[C@H](CC(=O)N(CCO)Cc1ccccc1)C(=O)N[C@@H](COC(=O)[C@@H](CC=C)CC(=O)OC(C)(C)C)Cc1c[nH]c2ccccc12`, the Potency is reported as inconclusive: 29.1 µM [cytotoxic, single point].
For `CCCCOc1ccccc1C1CC(=O)Nc2cc(C)c(C)cc21` (stereo not given), the Potency was inconclusive: 23.1 µM [cytotoxic, single point].
With `O=C(/C=C/c1ccc(F)cc1)NC(=S)NC1CCCCC1` the activity change, negative = cytotoxic was inconclusive: -0.338%.
In the case of `Cn1nc(-c2ccccc2)c(CSc2ccccc2Cl)c1Cl`, the Potency is reported as inconclusive: 25.9 µM [cytotoxic, single point].
With `Cc1cc(C)nc(N2CCC(C(=O)NCc3cccs3)CC2)n1` the Potency was “inactive”.
For `CCCc1nc(NCc2ccccn2)c2nnn(Cc3ccccc3F)c2n1`, the Potency was inconclusive: 29.1 µM [cytotoxic, single point].
With `O=C(Oc1c(Cl)cc(Cl)c2cccnc12)c1cccs1` the Potency was inconclusive: 20.6 µM [cytotoxic, partial curve].
In the case of `O=C(NCCCN1CCN(c2cccc(Cl)c2)CC1)c1ccc2nc(Cc3ccccc3)oc2c1`, the Potency is reported as active: 14.6 µM.
In the case of `CN(CCOc1ccccc1)C(=O)C1CCC(=O)N(CCN2CCOCC2)C1` (stereo not given), the Potency is reported as inconclusive: 2.59 µM [rising, partial curve].
For `NNC(=O)c1cccc(S(=O)(=O)Nc2cccc(C(F)(F)F)c2)c1`, the Potency was “inactive”.
For `CC(C)(C)CNC(=O)c1ccc2c(c1)S(=O)(=O)c1cc(Cl)ccc1C2=O`, the Potency was inconclusive: 29.1 µM [rising, single point].
In the case of `Cn1c(=O)c(C#N)c(-c2ccc(F)cc2)c2cc(C(=O)c3cc(Cl)cc(Cl)c3O)cnc21`, the Potency is reported as inconclusive: 29.1 µM [cytotoxic, single point].
With `Cc1ccc(N(CC(O)Cn2c3ccccc3c3ccccc32)S(C)(=O)=O)c(C)c1` (stereo not given) the Potency was active: 23.1 µM.
With `CCCCNC(=O)c1ccc2c(c1)N=C(CC)c1ccccc1S2` the Potency was inconclusive: 11.6 µM [cytotoxic, partial curve].
In the case of `CSc1ccc(/C=C(\NC(=O)c2ccccc2)C(=O)NN)cc1`, the Potency is reported as “inactive”.
For `COc1ccc(-c2csc3ncnc(N4CCN(C(=O)c5ccco5)CC4)c23)cc1`, the Potency was “inactive”.
In the case of `C[C@H](CO)N1C[C@H](C)[C@H](CN(C)Cc2ccc(Oc3ccccc3)cc2)Oc2cc(Br)ccc2S1(=O)=O`, the Potency is reported as inconclusive: 18.4 µM [cytotoxic, single point].
With `O=C(CN1C(=O)NC2(CCCC2)C1=O)OCCOc1cccc(Cl)c1` the Potency was inconclusive: 20.6 µM [rising, partial curve, poor fit].
In the case of `N#Cc1cn(CCCOc2ccccc2)c2ccccc12`, the Potency is reported as inconclusive: 18.4 µM [cytotoxic, single point].
For `NC(=S)N/N=C/c1ccc(-c2ccc(SC(F)F)cc2)o1`, the Potency was inconclusive: 29.1 µM [cytotoxic, single point].
In the case of `COc1ccc(CCNc2oc(Cc3cccc4ccccc34)nc2C#N)cc1OC`, the Potency is reported as inconclusive: 18.4 µM [cytotoxic, single point].
In the case of `Cc1nc(N2CCN(c3ccccn3)CC2)c2c(C)c(C(=O)N3CCN(c4ccccc4F)CC3)sc2n1`, the Potency is reported as inconclusive: 29.1 µM [cytotoxic, single point].
With `CCN(CC)c1ccc(/C=C/c2ccccn2)cc1` the Potency was active: 0.326 µM.
For `CC1=CC(C)(C)N2C(=O)C3(C(C#N)=C(N)Oc4cc(O)ccc43)c3cccc1c32` (stereo not given), the Potency was inconclusive: 20.6 µM [cytotoxic, single point].
For `Cc1ccc(S(=O)(=O)C=CS(=O)(=O)c2ccc(C)cc2)cc1`, the Potency was inconclusive: 29.1 µM [cytotoxic, single point].
For `COC(=O)C1=C(C)NC(=S)NC1c1ccc(-c2cc(Cl)ccc2Cl)o1` (stereo not given), the Potency was inconclusive: 18.4 µM [cytotoxic, partial curve].
In the case of `O=C(CN1C(=O)C2(SCC(=O)N2c2ccc(F)cc2)c2ccccc21)NC1CCCCC1` (stereo not given), the Potency is reported as “inactive”.
In the case of `CC1CCN(C(=O)c2ccc(CNS(=O)(=O)c3ccc(C(C)(C)C)cc3)cc2)CC1`, the Potency is reported as inconclusive: 29.1 µM [cytotoxic, single point].
For `O=C(NCc1ccccc1)c1ccc(CS(=O)(=O)c2c(Cl)cccc2Cl)o1`, the Potency was “inactive”.
In the case of `COc1cc2c(NC3CCN(C(C)C)CC3)nc(N3CCCN(C)CC3)nc2cc1OCCOCCN(C)C`, the Potency is reported as inconclusive: 10.3 µM [cytotoxic, partial curve, poor fit].
For `CCOc1ccc(CNS(=O)(=O)c2ccc3c(c2)CC(C)N3C(C)=O)cc1OC` (stereo not given), the Potency was “inactive”.
For `COc1ccc(OC)c(CN2CCSCC2)c1`, the Potency was “inactive”.
For `Cc1cccc(N(CC(=O)N2CCCCCC2)S(C)(=O)=O)c1C`, the Potency was inconclusive: 0.0058 µM [cytotoxic, full curve, poor fit].
In the case of `O=C(Nc1ccc(-c2csc(-c3ccccc3)n2)cc1)c1ccccc1Cl`, the Potency is reported as inconclusive: 29.1 µM [cytotoxic, single point].
With `COc1ccc(CNC(=O)c2cnn(-c3ccccc3)c2-n2cccc2)cc1OC` the Potency was inconclusive: 29.1 µM [cytotoxic, single point].
In the case of `COc1ccc(Cn2c(C3CC3)nc3ccc(NC(=O)c4ccco4)cc3c2=O)cc1`, the Potency is reported as inconclusive: 16.4 µM [cytotoxic, single point].
For `COc1cccc(Nc2nc(C(N)C(C)C)cs2)n1` (stereo not given), the Potency was inconclusive: 20.6 µM [cytotoxic, single point].
With `Cc1cc(C(=O)OCC(=O)N(C)c2c(N)n(Cc3ccccc3)c(=O)[nH]c2=O)c(C)n1-c1ccccc1` the Potency was “inactive”.
For `O=C1C=C(c2cccs2)C[C@H](c2ccccc2)[C@H]1n1nnc([N+](=O)[O-])n1`, the Potency was inconclusive: 20.6 µM [cytotoxic, single point].
With `Cc1ccc(C(=O)Nc2ccc(N3CCN(C(=O)c4cccs4)CC3)cc2)c(Cl)c1` the Potency was inconclusive: 25.9 µM [cytotoxic, single point].
With `O=C(c1cnn2c(-c3ccccc3)cc(-c3ccccc3)nc12)N1CCN(Cc2ccccc2)CC1` the Potency was inconclusive: 29.1 µM [cytotoxic, single point].
With `CCOC(=O)C1=C(COC(=O)CSc2ccc(C)cc2C)NC(=O)NC1C` (stereo not given) the Potency was inconclusive: 32.6 µM [rising, single point].
With `CC(Sc1nnnn1-c1ccc(Cl)cc1)C(=O)NCC(=O)Nc1ccc(F)c(F)c1F` (stereo not given) the Potency was “inactive”.
With `CCOC(=O)c1[nH]c(C)c(CCC(=O)N2CCN(c3cc(C)ccc3C)CC2)c1C` the Potency was inconclusive: 20.6 µM [cytotoxic, partial curve, poor fit].
For `COc1ccccc1-c1nnc(NC(=O)c2ccc(S(=O)(=O)N(C)Cc3ccccc3)cc2)o1`, the Potency was inconclusive: 4.61 µM [cytotoxic, partial curve, poor fit].
For `Cn1nc(C(F)(F)F)c2cc(C(=O)Nc3ccc(C(F)(F)F)cc3)sc21`, the Potency was inconclusive: 18.4 µM [cytotoxic, single point].
In the case of `CCOC(=O)c1c(C)[nH]c(C(=O)COC(=O)c2ccco2)c1C`, the Potency is reported as inconclusive: 20.6 µM [cytotoxic, partial curve, poor fit].
For `COc1ccc(C(=O)c2c3ccc(OC)cc3[n+]([O-])n2Cc2ccc(C(N)=O)cc2)cc1`, the Potency was “inactive”.
With `Cc1cc(Br)ccc1SCC(=O)OCC(O)=C(C#N)c1nc2ccccc2[nH]1` the Potency was inconclusive: 20.6 µM [cytotoxic, single point].
For `COc1ccc(-n2cccc2/C=C2\C(=N)N3N=C(C(C)C)SC3=NC2=O)cc1`, the Potency was inconclusive: 16.4 µM [rising, single point].
For `CCC1CCCCN1C(=O)c1cc(COc2ccc(-n3cncn3)cc2)on1` (stereo not given), the Potency was active: 18.4 µM.
In the case of `CN(C)C(=O)c1cccc(-c2cnc3c(NC=O)cc(-c4ccccc4F)cn23)c1`, the Potency is reported as inconclusive: 29.1 µM [cytotoxic, single point].
In the case of `COCCNC(=O)C1(C)Cc2c(-c3cccc(C(F)(F)F)c3)ccnc2O1` (stereo not given), the Potency is reported as inconclusive: 20.6 µM [cytotoxic, single point].
For `Cc1ccc(NC(=O)c2sc(Cl)nc2-c2ccccc2)cc1`, the Potency was inconclusive: 29.1 µM [cytotoxic, single point].
With `CC(C)c1nccn1S(=O)(=O)c1cccc([N+](=O)[O-])c1` the Potency was “inactive”.
For `O=C(C1=C(c2ccccc2)C(=O)c2ccccc2C1=O)c1ccccc1`, the Potency was inconclusive: 29.1 µM [cytotoxic, single point].
For `COC(=O)CCCC1=CC2=C(c3ccccc3)C(=O)C(C)(OC(=O)C3CCCC3)C(=O)C2=CN1Cc1ccco1` (stereo not given), the Potency was inconclusive: 2.91 µM [rising, full curve].
For `Cc1c(C(=O)C(=O)N2CC=C(c3ccccc3)CC2)c2ccccc2n1C`, the Potency was active: 2.91 µM.
For `CCOc1ccc2c(c1)C(=O)C(=O)N2CC1COc2ccccc2O1` (stereo not given), the Potency was active: 13 µM.
For `CC(Oc1ccccc1)C(=O)Nc1c(C(=O)Nc2cccc(F)c2)oc2ccccc12` (stereo not given), the Potency was inconclusive: 29.1 µM [cytotoxic, single point].
In the case of `CC1Cc2cc(/C=C3/SC(N4CCC(C(N)=O)CC4)=NC3=O)ccc2O1` (stereo not given), the Potency is reported as inconclusive: 29.1 µM [cytotoxic, single point].
In the case of `CCc1ccc(S(=O)(=O)Nc2cc3c(cc2C)n(C)c(=O)c(=O)n3C)cc1`, the Potency is reported as “inactive”.
